Measurements reported in PubChem BioAssay AID1224826 (NIAID, 2016)
The deposit covers about 17,000 reagents; shown is a part drawn at random. Over the whole deposit, about 1,110 (6.6%) were called active. 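Active means lowered or raised reporter signal; replicate intensities are raw and not normalised per plate.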 No sequences are given here.

Screen: 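Knock-downs that raise or lower Tnf reporter signal after endotoxin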 (primary screen)
Cell system: RAW264.7 G9 macrophages from mouse bearing reporters for p65 (GFP) and the Tnf promoter (mCherry)
Reagent: siRNA pool against mouse genes, 100 nM
Duration: 16 h of LPS stimulation, after 2 days of siRNA transfection
Treatment: bacterial lipopolysaccharide (Salmonella minnesota R595), 10 ng/ml
Read-out: 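Imaged Tnf reporter mCherry in nuclei, minus background, normalised per plate to the median and expressed as robust z-scores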
Direction: Tnf reporter robust z-score: higher = stronger Tnf promoter reporter signal after LPS; Tnf reporter intensity: higher = stronger Tnf promoter reporter signal
Hit rule: 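Called active when robust z-score is at most -1.3, matching the median of the Tlr4 knock-down control, or over 3; control wells and wells with under 50 cells never active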
Calls: active = Tnf reporter clearly lowered or raised; inactive = no clear change in Tnf reporter

no.	target gene	Tnf reporter robust z-score	fewer than 50 cells in well	Tnf reporter intensity, replicate 1	Tnf reporter intensity, replicate 2	call
1	Aff1	1.15	enough cells in well	248	184	inactive
2	Grem1	-0.71	enough cells in well	171	135	inactive
3	Usp27x	1.73	enough cells in well	172	155	inactive
4	Mdfic	2.56	enough cells in well	363	242	inactive
5	Calr	2.79	enough cells in well	235	379	inactive
6	Cacna2d3	-0.53	enough cells in well	156	117	inactive
7	Or52b2	1.85	enough cells in well	119	244	inactive
8	Kcnmb4	-0.49	enough cells in well	176	98.5	inactive
9	Klk1b24	-0.68	enough cells in well	161	92.3	inactive
10	Pck1	1.53	enough cells in well	227	310	inactive
11	Smn1	-0.24	enough cells in well	236	215	inactive
12	Hipk4		fewer than 50 cells per well; well left out of calls	139	230	inactive
13	Or4f57	-0.33	enough cells in well	157	110	inactive
14	Map4k2		fewer than 50 cells per well; well left out of calls	171	98.8	inactive
15	Uqcc2	-0.13	enough cells in well	166	36.3	inactive
16	Podn	0.07	enough cells in well	138	111	inactive
17	Dnajc4	0.77	enough cells in well	236	66.7	inactive
18	Egln3	-0.6	enough cells in well	118	112	inactive
19	Fap	-0.65	enough cells in well	187	111	inactive
20	Eaf1	-0.92	enough cells in well	133	68.3	inactive
21	Hrnr	0.21	enough cells in well	301	30.5	inactive
22	Or5ar1	-0.64	enough cells in well	193	80.9	inactive

In a second layout: results already given.
Grem1 → Tnf reporter robust z-score: -0.71; fewer than 50 cells in well: enough cells in well; Tnf reporter intensity, replicate 1: 171; Tnf reporter intensity, replicate 2: 135; call: inactive
Usp27x → Tnf reporter robust z-score: 1.73; fewer than 50 cells in well: enough cells in well; Tnf reporter intensity, replicate 1: 172; Tnf reporter intensity, replicate 2: 155; call: inactive
Mdfic → Tnf reporter robust z-score: 2.56; fewer than 50 cells in well: enough cells in well; Tnf reporter intensity, replicate 1: 363; Tnf reporter intensity, replicate 2: 242; call: inactive
Calr → Tnf reporter robust z-score: 2.79; fewer than 50 cells in well: enough cells in well; Tnf reporter intensity, replicate 1: 235; Tnf reporter intensity, replicate 2: 379; call: inactive
Cacna2d3 → Tnf reporter robust z-score: -0.53; fewer than 50 cells in well: enough cells in well; Tnf reporter intensity, replicate 1: 156; Tnf reporter intensity, replicate 2: 117; call: inactive
Or52b2 → Tnf reporter robust z-score: 1.85; fewer than 50 cells in well: enough cells in well; Tnf reporter intensity, replicate 1: 119; Tnf reporter intensity, replicate 2: 244; call: inactive
Kcnmb4 → Tnf reporter robust z-score: -0.49; fewer than 50 cells in well: enough cells in well; Tnf reporter intensity, replicate 1: 176; Tnf reporter intensity, replicate 2: 98.5; call: inactive

Continued:
no.	target gene	Tnf reporter robust z-score	fewer than 50 cells in well	Tnf reporter intensity, replicate 1	Tnf reporter intensity, replicate 2	call
23	Cr2	-0.79	enough cells in well	141	180	inactive
24	Lama4	-0.51	enough cells in well	197	125	inactive
25	Tbx21	-0.74	enough cells in well	161	110	inactive
26	Kcnip2	0.87	enough cells in well	123	165	inactive
27	Eng	0.31	enough cells in well	222	288	inactive
28	Scart2	-1.25	enough cells in well	106	81.6	inactive
29	Tmem177		fewer than 50 cells per well; well left out of calls	184	72	inactive
30	Ngrn	-1.15	enough cells in well	122	84.2	inactive
31	Ca6	-0.73	enough cells in well	108	155	inactive
32	Nup50	-0.99	enough cells in well	132	58.4	inactive
33	Fgfr1	-0.58	enough cells in well	125	155	inactive
34	Styk1	1.58	enough cells in well	332	215	inactive
35	Foxo6	-0.53	enough cells in well	199	115	inactive
36	Fam168b	5.73	enough cells in well	437	492	active
37	Speer4b	2.68	enough cells in well	188	192	inactive
38	Taf4	1.08	enough cells in well	307	189	inactive
39	Rsad2	0.29	enough cells in well	180	166	inactive
40	Sec16b	1.02	enough cells in well	167	176	inactive
41	Gpr35	-0.25	enough cells in well	174	310	inactive
42	Xlr5c	0.71	enough cells in well	147	162	inactive
43	Atp6v1f	1.32	enough cells in well	195	253	inactive
44	Gpm6b	0.99	enough cells in well	297	239	inactive
45	Pard6g	-0.15	enough cells in well	160	108	inactive
46	Yap1	-0.31	enough cells in well	184	231	inactive
47	Siral2		fewer than 50 cells per well; well left out of calls	122	74.3	inactive
48	Scml4	0.27	enough cells in well	126	153	inactive
49	Macir	3.56	enough cells in well	383	380	active
50	Irak3	0.72	enough cells in well	250	193	inactive
51	Slc9a8	-1.56	enough cells in well	45	49.5	active
52	Pik3r1	-0.69	enough cells in well	140	133	inactive
53	Or1e1c	-0.34	enough cells in well	289	64.6	inactive
54	Ddx20	0.75	enough cells in well	286	263	inactive
55	Wdr19	0.19	enough cells in well	144	216	inactive
56	Obox3	-0.84	enough cells in well	149	96.2	inactive
57	Fam120b		fewer than 50 cells per well; well left out of calls	217	49.4	inactive
58	Idi2	0.38	enough cells in well	188	79.3	inactive
